Data published in article PMC9223896.
These are yes or no findings as the source states them, for the method shown. In cells and extracts the contact can be indirect. Some entries that bind do so weakly or less than the wild type. For some assays here: Tags and fused reporters may be left off the sequences shown.

Tests used:
[1] = target: T1, GFP-NAT10 (N-acetyltransferase 10 in pEGFP-C3) (UniProt Q9H0A0); test: co-IP; VCaP and PC-3 cells transfected with GFP-NAT10 or Flag-CDC6; lysate; anti-GFP mAb-agarose or anti-DDDDK-tag pAb agarose; endogenous partner detected by immunoblot
T1 sequence: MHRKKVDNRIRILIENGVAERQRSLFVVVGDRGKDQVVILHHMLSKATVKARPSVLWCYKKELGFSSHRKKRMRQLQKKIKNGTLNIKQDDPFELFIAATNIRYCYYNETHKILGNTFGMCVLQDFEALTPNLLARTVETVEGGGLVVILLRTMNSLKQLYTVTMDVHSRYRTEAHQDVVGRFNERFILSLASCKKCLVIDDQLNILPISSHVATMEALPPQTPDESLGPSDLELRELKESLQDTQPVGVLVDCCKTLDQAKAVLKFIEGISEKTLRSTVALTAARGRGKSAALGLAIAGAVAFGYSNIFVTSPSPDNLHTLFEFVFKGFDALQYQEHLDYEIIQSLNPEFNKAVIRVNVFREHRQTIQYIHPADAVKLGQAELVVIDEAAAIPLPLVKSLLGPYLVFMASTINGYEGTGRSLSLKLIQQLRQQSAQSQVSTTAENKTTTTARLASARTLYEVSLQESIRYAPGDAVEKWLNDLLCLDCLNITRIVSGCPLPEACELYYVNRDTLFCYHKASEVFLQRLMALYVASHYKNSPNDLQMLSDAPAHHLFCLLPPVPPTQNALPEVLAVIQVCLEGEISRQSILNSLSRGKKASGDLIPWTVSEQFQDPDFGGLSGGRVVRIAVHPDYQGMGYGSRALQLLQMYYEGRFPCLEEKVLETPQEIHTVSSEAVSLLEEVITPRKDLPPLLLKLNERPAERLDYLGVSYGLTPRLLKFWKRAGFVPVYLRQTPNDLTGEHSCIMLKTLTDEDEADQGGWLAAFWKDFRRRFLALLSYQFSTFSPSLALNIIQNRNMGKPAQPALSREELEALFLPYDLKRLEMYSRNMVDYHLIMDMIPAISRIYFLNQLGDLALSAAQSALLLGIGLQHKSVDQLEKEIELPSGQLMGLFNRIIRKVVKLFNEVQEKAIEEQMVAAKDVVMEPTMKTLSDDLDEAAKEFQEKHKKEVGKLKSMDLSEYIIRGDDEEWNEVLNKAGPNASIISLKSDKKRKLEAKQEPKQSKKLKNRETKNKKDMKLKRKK

[2] = target: T2, endogenous NAT10 (human (endogenous in VCaP and PC-3)) (UniProt Q9H0A0); test: co-IP; endogenous proteins in VCaP cell lysate; immunoprecipitation with NAT10 antibody and with CDC6 antibody, protein A/G agarose, overnight at 4 °C; immunoblot
T2 sequence: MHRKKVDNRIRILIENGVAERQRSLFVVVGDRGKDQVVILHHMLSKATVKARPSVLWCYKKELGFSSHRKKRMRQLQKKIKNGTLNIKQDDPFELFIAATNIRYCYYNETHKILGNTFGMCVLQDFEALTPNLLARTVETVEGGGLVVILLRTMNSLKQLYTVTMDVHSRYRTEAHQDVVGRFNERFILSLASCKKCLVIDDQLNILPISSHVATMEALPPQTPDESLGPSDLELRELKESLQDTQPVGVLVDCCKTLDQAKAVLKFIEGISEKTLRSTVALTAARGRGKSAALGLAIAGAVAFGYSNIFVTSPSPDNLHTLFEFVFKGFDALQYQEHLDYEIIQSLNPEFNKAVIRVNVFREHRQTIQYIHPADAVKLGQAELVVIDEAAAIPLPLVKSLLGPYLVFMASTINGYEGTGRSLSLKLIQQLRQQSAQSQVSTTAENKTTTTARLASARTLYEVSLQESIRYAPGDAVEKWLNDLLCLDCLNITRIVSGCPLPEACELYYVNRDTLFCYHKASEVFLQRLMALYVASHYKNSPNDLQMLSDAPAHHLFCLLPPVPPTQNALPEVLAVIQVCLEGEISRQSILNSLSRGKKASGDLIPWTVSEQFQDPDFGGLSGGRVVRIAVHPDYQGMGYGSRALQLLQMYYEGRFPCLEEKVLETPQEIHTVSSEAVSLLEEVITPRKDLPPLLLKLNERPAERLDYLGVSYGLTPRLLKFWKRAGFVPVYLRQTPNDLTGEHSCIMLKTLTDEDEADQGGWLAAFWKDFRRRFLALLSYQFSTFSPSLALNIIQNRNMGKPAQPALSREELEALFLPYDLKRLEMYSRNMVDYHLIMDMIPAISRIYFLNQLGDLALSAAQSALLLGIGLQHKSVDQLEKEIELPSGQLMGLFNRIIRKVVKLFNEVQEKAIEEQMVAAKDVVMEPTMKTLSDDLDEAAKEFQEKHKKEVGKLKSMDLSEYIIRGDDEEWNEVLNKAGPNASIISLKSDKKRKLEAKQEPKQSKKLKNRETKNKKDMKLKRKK

binding [1]: binds
binding [2]: binds
B1: endogenous CDC6 (protein, UniProt Q99741 1-560)
chain: MPQTRSQAQATISFPKRKLSRALNKAKNSSDAKLEPTNVQTVTCSPRVKALPLSPRKRLGDDNLCNTPHLPPCSPPKQGKKENGPPHSHTLKGRRLVFDNQLTIKSPSKRELAKVHQNKILSSVRKSQEITTNSEQRCPLKKESACVRLFKQEGTCYQQAKLVLNTAVPDRLPAREREMDVIRNFLREHICGKKAGSLYLSGAPGTGKTACLSRILQDLKKELKGFKTIMLNCMSLRTAQAVFPAIAQEICQEEVSRPAGKDMMRKLEKHMTAEKGPMIVLVLDEMDQLDSKGQDVLYTLFEWPWLSNSHLVLIGIANTLDLTDRILPRLQAREKCKPQLLNFPPYTRNQIVTILQDRLNQVSRDQVLDNAAVQFCARKVSAVSGDVRKALDVCRRAIEIVESDVKSQTILKPLSECKSPSEPLIPKRVGLIHISQVISEVDGNRMTLSQEGAQDSFPLQQKILVCSLMLLIRQLKIKEVTLGKLYEAYSKVCRKQQVAAVDQSECLSLSGLLEARGILGLKRNKETRLTKVFFKIEEKEIEHALKDKALIGNILATGLP
